From PMC3984256, “A PCNA-Derived Cell Permeable Peptide Selectively Inhibits Neuroblastoma Cell Growth” (PLoS ONE, 2014)
No constants are given. Whether binding was seen depends on the method and setting. Some results given as binding are weak or reduced against the parent protein; the word gives no strength.

The chains behind the UniProt entries cited, without tags or fusion partners.
UniProt P12004: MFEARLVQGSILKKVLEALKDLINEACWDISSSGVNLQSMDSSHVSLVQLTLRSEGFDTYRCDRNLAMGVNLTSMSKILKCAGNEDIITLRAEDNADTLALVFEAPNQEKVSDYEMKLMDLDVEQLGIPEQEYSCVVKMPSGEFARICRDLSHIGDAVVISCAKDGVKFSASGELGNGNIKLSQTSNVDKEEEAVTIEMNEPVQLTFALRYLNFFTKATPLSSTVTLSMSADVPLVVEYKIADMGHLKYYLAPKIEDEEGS

Molecular target: T1, FEN1 peptide containing the PIP-box
T1 sequence (peptide): SKSRQGSTQGRLDDFF
Test: SPR; Biacore T100; FEN1 PIP-box peptide immobilised on a CM5 chip by carbodiimide coupling; rPCNA 250-1000 nM flowed over in the presence of 0, 500 or 1000 nM caPep; HBS-EP+ (10 mM HEPES pH 7.4, 0.15 M NaCl, 3 mM EDTA, 0.05% P20); 5 ul/min, 3 min contact; both purified

binding: binds
Substance: Recombinant PCNA (proliferating cell nuclear antigen) (from UniProt P12004 1-261)
